From US20090060906A1
No constants are given. Whether binding was seen depends on the method and setting. Some binding calls cover weakened binding; strength is not graded here.

Chains of the proteins cited; added tags and fusions are not shown. Residues count along the entry.
UniProt P35225, residues 35-146: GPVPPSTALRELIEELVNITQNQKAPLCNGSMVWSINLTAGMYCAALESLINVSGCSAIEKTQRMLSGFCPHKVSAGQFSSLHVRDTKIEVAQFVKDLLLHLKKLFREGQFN

Target: IL-13 (UniProt P35225)
Test: IGEN plate binding assay, 96-well format

- binding: binds
B1: IMA-638 (antibody, human IgG1, kappa, V domains shown)
VH: EVQLVESGGGLVQPGGSLRLSCAASGFTFISYAMSWVRQAPGKGLEWVASISSGGNTYYPDSVKGRFTISRDNAKNSLYLQMNSLRAEDTAVYYCARLDGYYFGFAYWGQGTLVTVSS
VL: DIQMTQSPSSLSASVGDRVTITCKASESVDNYGKSLMHWYQQKPGKAPKLLIYRASNLESGVPSRFSGSGSGTDFTLTISSLQPEDFATYYCQQSNEDPWTFGGGTKVEIKR
